# The list shows a part of the results.
# B1: SspB (Streptococcus gordonii), P16952 (protein)
# chain: MKNKKEVYGFRKSKVAKTLCGAVLGTALIAFADKAVFADEVTETTSTSTVEVATTGNPATNLPEAQGEMSQVAKESQAKAGSKESALPVEVSSADLDKAVADAKSAGVKVVQDETKDKGTATTATDNAQKQDEIKSDYAKQAEEIKTTTEAYKKEVAAHQAETDKINAENKAADDKYQKDLKSHQEEVEKINTANATAKAEYEAKLAQYQKDLATVKKANEDSQQDYQNKLSAYQTELARVQKANAEAKEAYEKAVKENTAKNEALKVENEAIKQRNETAKATYEAAMKQYEADLAAIKKANEDNDADYQAKLAAYQTELARVQKANAEAKEAYDKAVKENTAKNTAIQAENEAIKQRNETAKATYDAAVKKYEADLAAVKQANATNEADYQAKLAAYQTELARVQKANADAKATYEKAVEDNKAKNAAIKAENEEIKQRNAVAKTDYEAKLAKYEADLAKYKKEFAAYTAALAEAESKKKQDGYLSEPRSQSLNFKSEPNAIRTIDSSVHQYGQQELDALVKSWGISPTNPDRKKSRAYSYFNAINSNNTYAKLVLEKDKPVDVTYTGLKNSSFNGKKISKVVYTYTLKETGFNDGTKMTMFASSDPTVTAWYNDYFTSTNINVKVKFYDEEGQLMNLTGGLVNFSSLNRGNGSGAIDKDAIESVRNFNGRYIPISGSSIKIHENNSAYADSSNAEKSLGARWNTSEWDTTSSPNNWYGAIVGEITQSEISFNMASSKSGNIWFAFNSNINAIGVPTKPVAPTAPTQPMYETEKPLEPAPVAPSYENEPTPPVKTPDQPEPSKPEEPTYETEKPLEPAPVAPSYENEPTPPVKTPDQPEPSKPEEPNYETEKPLEPAPVAPSYENEPTPPVKIPDQPEPSKPEEPTYDPLPTPPLAPTPKQLPTPPVVPTVHFHYSSLLAQPQINKEIKNEDGVDIDRTLVAKQSIVKFELKTEALTAGRPKTTSFVLVDPLPTGYKFDLDATKAASTGFDTTYDEASHTVTFKATDETLATYNADLTKPVETLHPTVVGRVLNDGATYTNNFTLTVNDAYGIKSNVVRVTTPGKPNDPDNPNNNYIKPTKVNKNKEGLNIDGKEVLAGSTNYYELTWDLDQYKGDKSSKEAIQNGFYYVDDYPEEALDVRPDLVKVADEKGNQVSGVSVQQYDSLEAAPKKVQDLLKKANITVKGAFQLFSADNPEEFYKQYVATGTSLVITDPMTVKSEFGKTGGKYENKAYQIDFGNGYATEVVVNNVPKITPKKDVTVSLDPTSENLDGQTVQLYQTFNYRLIGGLIPQNHSEELEDYSFVDDYDQAGDQYTGNYKTFSSLNLTMKDGSVIKAGTDLTSQTTAETDATNGIVTVRFKEDFLQKISLDSPFQAETYLQMRRIAIGTFENTYVNTVNKVAYASNTVRTTTPIPRTPDKPTPIPTPKPKDPDKPETPKEPKVPSPKVEDPSAPIPVSVGKELTTLPKTGTNDATYMPYLGLAALVGFLGLGLAKRKED
# How the values were obtained:
# Experiment in all cases: glycan array binding signal (z-score within array); higher = stronger binding
# Conditions in all cases: glycan notation: IUPAC condensed, linker removed
# Fuc(a1-2)Gal = molecular target: Fuc(a1-2)Gal
# In short: (§1)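 Negative Z-scores can be read as non-binding. The Z-score is calculated within each array and then averaged across arrays of one protein sequence at different concentrations or buffers and across linkers. Arrays, 3228 in all, were curated from the Consortium for Functional Glycomics database and kept only where the protein sequence was available.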
# Fuc(a1-2)Gal(b1-3)GalNAc = molecular target: Fuc(a1-2)Gal(b1-3)GalNAc
# In short: as §1
# [1] = molecular target: Fuc(a1-2)Gal(b1-3)GalNAc(a1-3)[Fuc(a1-2)]Gal(b1-4)Glc
# In short: as §1
# [2] = molecular target: Fuc(a1-2)Gal(b1-3)GalNAc(a1-3)[Fuc(a1-2)]Gal(b1-4)GlcNAc
# In short: as §1
# [3] = molecular target: Fuc(a1-2)Gal(b1-3)GalNAc(b1-3)Gal
# In short: as §1
# [4] = molecular target: Fuc(a1-2)Gal(b1-3)GalNAc(b1-3)Gal(a1-4)Gal(b1-4)Glc
# In short: as §1
# [5] = molecular target: Fuc(a1-2)Gal(b1-3)GalNAc(b1-4)[Neu5Ac(a2-3)]Gal(b1-4)Glc
# In short: as §1
# Fuc(a1-2)Gal(b1-3)GlcNAc = molecular target: Fuc(a1-2)Gal(b1-3)GlcNAc
# In short: as §1
# [6] = molecular target: Fuc(a1-2)Gal(b1-3)GlcNAc(b1-2)Man(a1-3)[Fuc(a1-2)Gal(b1-3)GlcNAc(b1-2)Man(a1-6)]Man(b1-4)GlcNAc(b1-4)GlcNAc
# In short: as §1
# [7] = molecular target: Fuc(a1-2)Gal(b1-3)GlcNAc(b1-3)Gal(b1-4)Glc
# In short: as §1
# [8] = molecular target: Fuc(a1-2)Gal(b1-3)GlcNAc(b1-3)[Fuc(a1-3)[Gal(b1-4)]GlcNAc(b1-6)]Gal(b1-4)Glc
# In short: as §1
# [9] = molecular target: Fuc(a1-2)Gal(b1-3)[Fuc(a1-4)]GlcNAc
# In short: as §1
# [10] = molecular target: Fuc(a1-2)Gal(b1-3)[Fuc(a1-4)]GlcNAc(b1-2)Man(a1-3)[Fuc(a1-2)Gal(b1-3)[Fuc(a1-4)]GlcNAc(b1-2)Man(a1-6)]Man(b1-4)GlcNAc(b1-4)GlcNAc
# In short: as §1
# [11] = molecular target: Fuc(a1-2)Gal(b1-3)[Fuc(a1-4)]GlcNAc(b1-3)[Fuc(a1-3)[Gal(b1-4)]GlcNAc(b1-6)]Gal(b1-4)Glc
# In short: as §1
# [12] = molecular target: Fuc(a1-2)Gal(b1-3)[Fuc(a1-4)]GlcNAc(b1-3)[Gal(b1-4)GlcNAc(b1-6)]Gal(b1-4)Glc
# In short: as §1
# Fuc(a1-2)Gal(b1-4)Glc = molecular target: Fuc(a1-2)Gal(b1-4)Glc
# In short: as §1
# Fuc(a1-2)Gal(b1-4)Glc6S = molecular target: Fuc(a1-2)Gal(b1-4)Glc6S
# In short: as §1
# Fuc(a1-2)Gal(b1-4)GlcNAc = molecular target: Fuc(a1-2)Gal(b1-4)GlcNAc
# In short: as §1
# [13] = molecular target: Fuc(a1-2)Gal(b1-4)GlcNAc(b1-2)Man(a1-3)[Fuc(a1-2)Gal(b1-4)GlcNAc(b1-2)Man(a1-6)]Man(b1-4)GlcNAc(b1-4)GlcNAc
# In short: as §1
# [14] = molecular target: Fuc(a1-2)Gal(b1-4)GlcNAc(b1-3)Gal(b1-4)GlcNAc
# In short: as §1
# [15] = molecular target: Fuc(a1-2)Gal(b1-4)GlcNAc(b1-3)Gal(b1-4)GlcNAc(b1-3)Gal(b1-4)GlcNAc
# In short: as §1
# [16] = molecular target: Fuc(a1-2)Gal(b1-4)GlcNAc(b1-3)GalNAc
# In short: as §1
# [17] = molecular target: Fuc(a1-2)Gal(b1-4)GlcNAc6S
# In short: as §1
# [18] = molecular target: Fuc(a1-2)Gal(b1-4)[Fuc(a1-3)]GlcNAc
# In short: as §1
# [19] = molecular target: Fuc(a1-2)Gal(b1-4)[Fuc(a1-3)]GlcNAc(b1-2)Man(a1-3)[Fuc(a1-2)Gal(b1-4)[Fuc(a1-3)]GlcNAc(b1-2)Man(a1-6)]Man(b1-4)GlcNAc(b1-4)GlcNAc
# In short: as §1
# [20] = molecular target: Fuc(a1-2)Gal(b1-4)[Fuc(a1-3)]GlcNAc(b1-3)Gal(b1-4)[Fuc(a1-3)]GlcNAc
# In short: as §1
# [21] = molecular target: Fuc(a1-2)Gal(b1-4)[Fuc(a1-3)]GlcNAc(b1-3)Gal(b1-4)[Fuc(a1-3)]GlcNAc(b1-3)Gal(b1-4)[Fuc(a1-3)]GlcNAc
# In short: as §1
# Fuc(a1-2)Gal6S(b1-4)Glc = molecular target: Fuc(a1-2)Gal6S(b1-4)Glc
# In short: as §1
# [22] = molecular target: Fuc(a1-2)Gal6S(b1-4)Glc6S
# In short: as §1
# [23] = molecular target: Fuc(a1-2)Gal6S(b1-4)GlcNAc
# In short: as §1
binder,measurement,setting,value
B1,glycan array binding signal (z-score),Fuc(a1-2)Gal,-1.2
same,glycan array binding signal (z-score),Fuc(a1-2)Gal(b1-3)GalNAc,-0.545
same,glycan array binding signal (z-score),[1],1.87
same,glycan array binding signal (z-score),[2],-0.567
same,glycan array binding signal (z-score),[3],-0.306
same,glycan array binding signal (z-score),[4],0.643
same,glycan array binding signal (z-score),[5],-0.37
same,glycan array binding signal (z-score),Fuc(a1-2)Gal(b1-3)GlcNAc,-1.03
same,glycan array binding signal (z-score),[6],-0.918
same,glycan array binding signal (z-score),[7],0.184
same,glycan array binding signal (z-score),[8],1.82
same,glycan array binding signal (z-score),[9],0.647
same,glycan array binding signal (z-score),[10],-0.314
same,glycan array binding signal (z-score),[11],-0.658
same,glycan array binding signal (z-score),[12],0.034
same,glycan array binding signal (z-score),Fuc(a1-2)Gal(b1-4)Glc,0.44
same,glycan array binding signal (z-score),Fuc(a1-2)Gal(b1-4)Glc6S,-0.928
same,glycan array binding signal (z-score),Fuc(a1-2)Gal(b1-4)GlcNAc,-0.118
same,glycan array binding signal (z-score),[13],-1.19
same,glycan array binding signal (z-score),[14],-0.608
same,glycan array binding signal (z-score),[15],-0.303
same,glycan array binding signal (z-score),[16],-0.329
same,glycan array binding signal (z-score),[17],1.3
same,glycan array binding signal (z-score),[18],0.357
same,glycan array binding signal (z-score),[19],1.22
same,glycan array binding signal (z-score),[20],-0.255
same,glycan array binding signal (z-score),[21],1.55
same,glycan array binding signal (z-score),Fuc(a1-2)Gal6S(b1-4)Glc,1.12
same,glycan array binding signal (z-score),[22],1.29
same,glycan array binding signal (z-score),[23],-0.04

# Some of the entries so far, tab-delimited.
binder	measurement	setting	value
B1	glycan array binding signal (z-score)	[21]	1.55
same	glycan array binding signal (z-score)	Fuc(a1-2)Gal6S(b1-4)Glc	1.12

# Reference: the supplement of paper PMC8728848
